Test results reported in PubChem BioAssay AID493014 (National Center for Advancing Translational Sciences (NCATS), 2011).
About 170 (0.05%) of roughly 340,000 compounds were called active. The shares of active, inactive and inconclusive entries below differ from those in the screen. The call rests on the fitted dose curve; in most records, active means well fitted inhibition curve with a large enough effect in the signal ratio, with a control signal flat (not every such curve was filed as active); inconclusive means small, poorly fitted or top-dose-only effect, or effect the other way, or a change in a side signal; inactive means flat fitted curve, though single readings scatter; the % refers to the signal ratio. Potencies beside an inconclusive call are fits to weak or partial responses and may not hold up.

Test: qHTS Assay to Find Inhibitors of Chronic Active B-Cell Receptor Signaling;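 on activity change, negative = inhibition: plate controls were basal doxycycline-induced cells for no effect and cells given 10 µM MG132 for full effect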
Details: ABC-DLBCL IkBa-CBG/CBR reporter, luminescence ratio (green luciferase fused to IkBa over red control in TMD8 lymphoma cells), 4 h; activity change, negative = inhibition: at 46.1 µM (top of the series)
In short: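 Cell line TMD8 (human ABC DLBCL), stably expressing tet-inducible CBG68-IkBa fusion and CBR; IMDM/0.5% FBS; cpd up to 46 uM; dox induction, 4 h, 37C/5% CO2; dual luminescence; green/red ratio; MG132 control.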
Potency means the concentration at half of the fitted maximal effect.

Structure (SMILES)	activity change, negative = inhibition	Potency
c1cncc(CNc2ncnc3ccc(-c4ccco4)cc23)c1	inactive: 7.84%	–
Cc1ccc(CNC(=O)CCSCc2cccc(F)c2)cc1	inconclusive: -1.8%	–
Cc1ccc(NS(=O)(=O)c2cccc(C(=O)Nc3cc(C)on3)c2)cc1	inconclusive: -5.15%	–
Cc1ccc2cc3cc(C(=O)N4CCN(C(=O)c5ccco5)CC4)sc3nc2c1	inconclusive: -4.53%	–
COc1cc(Cn2c(-c3ccc(O)c(OC)c3)nc3ccccc32)ccc1O	inconclusive: -8.67%	–
CN(C)N1C(N)=C(C#N)C(c2ccsc2)C2=C1CCCC2=O (stereo not given)	inconclusive: 1.39%	–
Oc1ccc(N=Nc2nc(-c3ccccc3)c(-c3ccccc3)[nH]2)cc1	inconclusive: -2.88%	–
CCOc1ccc(S(=O)(=O)Nc2ccc3oc(C)c(C(=O)OCCOC)c3c2)cc1	–	inconclusive: 12.6 µM [falling, single point]
COc1ccc(Cl)cc1N1C(=O)C2CCCN2C1c1ccc(F)cc1 (stereo not given)	inconclusive: -10.5%	–
CCN1C(=O)CC(NCc2ccc3c(c2)OCO3)C1=O (stereo not given)	inconclusive: 9.72%	–
CCOc1nc(-c2ccc(OC)cc2)ccc1-c1noc(C)n1	inconclusive: 4.02%	–
CC(=O)n1c2ccccc2c2c1c1ccccc1n2C	inconclusive: -5.79%	–
COc1cc(NS(=O)(=O)c2c(C)[nH]c(C)c2C(=O)N2CCCC2)cc(OC)c1OC	inconclusive: -0.794%	–
Cc1ccc(NC(=O)COC(=O)[C@@H]2CCCN2C(=O)c2cccs2)cc1S(=O)(=O)N(C)C	inconclusive: 4.06%	–
COc1cc2c(cc1OC)-c1n[nH]c(=S)n1C(C)(C)C2	–	inconclusive: 35.5 µM [falling, single point]
CCOC(=O)c1[nH]c2ccc(OCC)cc2c1NC(=O)CN1CCN(c2ccccn2)CC1	inactive: -3.1%	–
O=C(O)c1cc(N2C(=O)CCC2=O)ccc1Cl	inactive: 6.74%	–
COc1ccc(-c2cc3cc(C(=O)O)ccn3c2C(=O)c2ccccc2)cc1	–	inconclusive: 10 µM [rising, partial curve]
COc1cc(OC)c(C2=NOC(C(=O)NCCc3ccccc3)C2)cc1Cl (stereo not given)	–	inconclusive: 7.31 µM [falling, single point]
COCCNC(=O)C(c1ccco1)N(C(=O)Cn1nnc2ccccc21)c1cccc(C)c1C (stereo not given)	inconclusive: 17.4%	–
O=NN(CCCl)C(=O)NCCCl	inactive: 1.5%	–
CC(C)(C)NC(=O)c1ccc(COc2ccc(Cl)cc2Cl)o1	inactive: -18.4%	–
COCC(C)NC(=O)c1cc(-c2ccccc2OC)on1 (stereo not given)	–	inconclusive: 4.47 µM [rising, partial curve, poor fit]
COc1cc(OC)cc(C(=O)N2c3ccc(F)cc3CCC2C)c1 (stereo not given)	inactive: 0.383%	–
N=c1oc2ccccc2cc1-c1nc(-c2ccccc2)cs1	inactive: 4.39%	–
O=C(N/N=C/c1ccc(Br)s1)c1cccc([N+](=O)[O-])c1	inconclusive: -1.94%	–
CCOC(=O)c1ncn2c1CN(C)C(=O)c1cc(F)ccc1-2	inconclusive: -6.79%	–
Cc1ccccc1NS(=O)(=O)c1ccc2[nH]cc(C(=O)N3CCCC3)c(=O)c2c1	inactive: -0.0006%	–

Structure (SMILES)	activity change, negative = inhibition	Potency
COCC(=O)NCCc1nc(-c2ccccc2)cs1	inconclusive: -1.91%	–
O=C(NCc1ccc(-c2nc3ccccc3s2)cc1)c1ccc(Br)o1	inconclusive: 11.5%	–
CCOC(=O)C1=C(C)c2ccccc2N(S(=O)(=O)C(F)(F)F)C1C(=O)OCC (stereo not given)	inconclusive: -0.0804%	–
COC(=O)c1[nH]c2ccc(C)cc2c1NC(=O)c1ccccc1[N+](=O)[O-]	inactive: -7.38%	–
O=[N+]([O-])c1ccc(Sc2nc3ccccc3o2)c([N+](=O)[O-])c1	–	inconclusive: 7.31 µM [falling, partial curve]
C/C(=N\NC(=O)CNC(=O)c1cccs1)c1ccc(Cl)c(Cl)c1	inconclusive: -9.02%	–
CCn1ncc2c1C(=O)NC1c3ccccc3C(=O)N21 (stereo not given)	inconclusive: -10%	–
CCc1ccc(CN(C)C(=O)c2cc(COc3cccc(C(F)(F)F)c3)on2)nc1	inconclusive: -1.01%	–
O=C(CN1CCc2ccccc2C1)Nc1cc(S(=O)(=O)N2CCOCC2)ccc1N1CCCC1	inactive: 2.38%	–
CC(=O)NC1=NN(C(C)=O)C(C)(CS(=O)(=O)c2ccc3ccccc3c2)S1 (stereo not given)	inconclusive: -1.49%	–
CCOC(=O)c1ccc(NC(=O)Nc2ccc3c(c2)OCCO3)cc1	–	inconclusive: 23.1 µM [falling, partial curve]
Cc1ccccc1NC(=O)C(Cl)=C(Cl)Cl	–	inconclusive: 22.4 µM [falling, single point]
CCOC(=O)c1c(NC(=O)c2ccoc2C)sc(C(=O)N(C)C)c1C	inconclusive: 12.8%	–
O=C(CSc1nc2nn(-c3ccccc3)c(=O)c-2c2n1CCCCC2)c1ccc(O)c(O)c1	inconclusive: -3.89%	–
O=C(Nc1ccccc1Oc1ccccc1)c1cc([N+](=O)[O-])ccc1Cl	inconclusive: -2.66%	–
NCCCNc1nc(N)c([N+](=O)[O-])c(NC2CCCCC2)n1	inconclusive: -15.7%	–
COc1ccc(C2(C)NC(=O)N(CC(=O)NCc3ccccc3F)C2=O)cc1 (stereo not given)	inconclusive: -13.1%	–
CN(C)C1=NC[C@H](Cc2ccccc2)N1CCCCc1ccccc1	inactive: -15.5%	–
Cc1ccc(C2CC(=O)C=C(NCc3ccccc3)C2)cc1 (stereo not given)	inactive: 11.6%	–
Nc1cc(=O)[nH]c(SCCNS(=O)(=O)c2ccccc2)n1	inconclusive: -0.28%	–
COC(=O)CSc1nnc([C@H](Cc2ccccc2)NC(=O)OC(C)(C)C)o1	inactive: 0.729%	–
Cc1ccnc(NC(=O)/C=C/c2cccs2)c1	–	inconclusive: 20.6 µM [falling, partial curve]
N/C(Cc1nc(-c2ccc(F)cc2)cs1)=N\O	inconclusive: 11.6%	–
O=C(Nc1ccccc1)Nc1nnc(-c2cccs2)s1	inconclusive: 4.78%	–
CC/C(=N/O)c1cnnc(SC)n1	inconclusive: -4.55%	–
O=C(O)C1CCN(C(=O)c2cc(F)cc3c2OCOC3)CC1	inconclusive: -6.69%	–
O=c1c2ccccc2nc(COc2ccccc2)n1/N=C/c1cc([N+](=O)[O-])ccc1O	inconclusive: -11%	–

Ordered by count of non-hydrogen atoms (smallest number first): three of the compounds above
Structure (SMILES)	activity change, negative = inhibition	Potency
O=C(NCc1ccc(-c2nc3ccccc3s2)cc1)c1ccc(Br)o1	inconclusive: 11.5%	–
Oc1ccc(N=Nc2nc(-c3ccccc3)c(-c3ccccc3)[nH]2)cc1	inconclusive: -2.88%	–
O=C(CSc1nc2nn(-c3ccccc3)c(=O)c-2c2n1CCCCC2)c1ccc(O)c(O)c1	inconclusive: -3.89%	–
